From the supplement of paper PMC10849652
The other results are listed elsewhere or left out.

The chains behind the UniProt entries cited, without tags or fusion partners. Where a name states a change or a piece, a line headed by the entry shows the natural chain unless it says otherwise.
UniProt Q9NVF7: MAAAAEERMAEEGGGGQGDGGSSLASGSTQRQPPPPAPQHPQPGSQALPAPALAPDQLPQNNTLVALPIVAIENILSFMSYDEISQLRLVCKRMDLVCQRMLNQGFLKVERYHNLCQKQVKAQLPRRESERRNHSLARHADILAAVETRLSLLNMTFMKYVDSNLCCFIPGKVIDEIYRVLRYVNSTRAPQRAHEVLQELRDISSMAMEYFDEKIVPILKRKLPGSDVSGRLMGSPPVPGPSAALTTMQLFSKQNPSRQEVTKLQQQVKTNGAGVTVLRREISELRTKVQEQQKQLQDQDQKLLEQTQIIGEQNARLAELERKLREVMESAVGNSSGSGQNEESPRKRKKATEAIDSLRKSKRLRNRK
UniProt O94868: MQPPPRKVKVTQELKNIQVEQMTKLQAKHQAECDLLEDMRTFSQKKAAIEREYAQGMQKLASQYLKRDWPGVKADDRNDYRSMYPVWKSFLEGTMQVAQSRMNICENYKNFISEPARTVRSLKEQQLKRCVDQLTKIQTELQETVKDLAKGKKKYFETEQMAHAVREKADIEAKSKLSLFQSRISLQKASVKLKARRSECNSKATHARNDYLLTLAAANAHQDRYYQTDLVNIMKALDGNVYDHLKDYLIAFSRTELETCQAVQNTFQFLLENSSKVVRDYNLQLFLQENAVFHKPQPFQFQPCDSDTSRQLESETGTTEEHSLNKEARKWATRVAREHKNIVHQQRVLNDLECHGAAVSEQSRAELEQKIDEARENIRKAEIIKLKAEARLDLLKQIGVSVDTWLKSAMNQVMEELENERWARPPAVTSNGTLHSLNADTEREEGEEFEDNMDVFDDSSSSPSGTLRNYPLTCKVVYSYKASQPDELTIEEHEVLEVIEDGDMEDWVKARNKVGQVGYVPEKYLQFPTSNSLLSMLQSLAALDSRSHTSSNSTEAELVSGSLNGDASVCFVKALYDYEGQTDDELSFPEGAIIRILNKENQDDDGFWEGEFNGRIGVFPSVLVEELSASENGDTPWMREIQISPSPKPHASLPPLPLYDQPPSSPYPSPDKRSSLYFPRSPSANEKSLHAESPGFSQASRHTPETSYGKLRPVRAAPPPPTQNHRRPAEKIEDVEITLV
UniProt P16591: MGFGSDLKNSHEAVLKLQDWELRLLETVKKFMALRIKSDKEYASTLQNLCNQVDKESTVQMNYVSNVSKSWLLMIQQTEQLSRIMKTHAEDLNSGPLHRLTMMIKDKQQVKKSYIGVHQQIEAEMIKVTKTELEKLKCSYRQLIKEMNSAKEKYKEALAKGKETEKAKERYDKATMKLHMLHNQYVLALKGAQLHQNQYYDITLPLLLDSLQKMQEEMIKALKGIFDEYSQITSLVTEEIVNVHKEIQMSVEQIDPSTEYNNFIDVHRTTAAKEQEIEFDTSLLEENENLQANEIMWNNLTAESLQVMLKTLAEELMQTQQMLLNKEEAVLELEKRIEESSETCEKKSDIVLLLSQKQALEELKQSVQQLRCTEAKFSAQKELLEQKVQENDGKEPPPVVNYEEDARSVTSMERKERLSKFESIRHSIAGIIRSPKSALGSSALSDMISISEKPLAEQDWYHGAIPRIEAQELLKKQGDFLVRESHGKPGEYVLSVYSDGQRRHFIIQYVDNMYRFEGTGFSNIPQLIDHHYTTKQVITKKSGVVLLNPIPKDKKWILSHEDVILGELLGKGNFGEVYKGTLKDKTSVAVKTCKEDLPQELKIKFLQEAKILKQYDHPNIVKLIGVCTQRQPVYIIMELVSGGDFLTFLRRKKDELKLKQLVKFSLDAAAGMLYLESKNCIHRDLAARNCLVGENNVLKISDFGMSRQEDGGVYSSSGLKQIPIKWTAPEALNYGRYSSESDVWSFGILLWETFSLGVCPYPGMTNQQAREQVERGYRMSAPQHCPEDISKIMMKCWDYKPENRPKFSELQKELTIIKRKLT
UniProt Q9HB96: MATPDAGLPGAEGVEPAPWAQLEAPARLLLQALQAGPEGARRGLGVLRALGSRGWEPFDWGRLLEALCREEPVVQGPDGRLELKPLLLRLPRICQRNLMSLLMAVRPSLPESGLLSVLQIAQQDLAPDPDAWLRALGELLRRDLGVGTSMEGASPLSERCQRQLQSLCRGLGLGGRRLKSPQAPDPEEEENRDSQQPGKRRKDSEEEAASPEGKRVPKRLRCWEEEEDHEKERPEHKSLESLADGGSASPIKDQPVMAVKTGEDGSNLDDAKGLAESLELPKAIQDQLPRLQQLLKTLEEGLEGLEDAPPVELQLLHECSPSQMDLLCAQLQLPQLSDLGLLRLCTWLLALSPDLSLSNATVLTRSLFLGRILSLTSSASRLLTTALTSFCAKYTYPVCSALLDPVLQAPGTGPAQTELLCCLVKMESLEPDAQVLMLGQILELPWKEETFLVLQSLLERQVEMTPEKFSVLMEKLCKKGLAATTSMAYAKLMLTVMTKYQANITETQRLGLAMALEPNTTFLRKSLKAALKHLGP
UniProt Q96JP0: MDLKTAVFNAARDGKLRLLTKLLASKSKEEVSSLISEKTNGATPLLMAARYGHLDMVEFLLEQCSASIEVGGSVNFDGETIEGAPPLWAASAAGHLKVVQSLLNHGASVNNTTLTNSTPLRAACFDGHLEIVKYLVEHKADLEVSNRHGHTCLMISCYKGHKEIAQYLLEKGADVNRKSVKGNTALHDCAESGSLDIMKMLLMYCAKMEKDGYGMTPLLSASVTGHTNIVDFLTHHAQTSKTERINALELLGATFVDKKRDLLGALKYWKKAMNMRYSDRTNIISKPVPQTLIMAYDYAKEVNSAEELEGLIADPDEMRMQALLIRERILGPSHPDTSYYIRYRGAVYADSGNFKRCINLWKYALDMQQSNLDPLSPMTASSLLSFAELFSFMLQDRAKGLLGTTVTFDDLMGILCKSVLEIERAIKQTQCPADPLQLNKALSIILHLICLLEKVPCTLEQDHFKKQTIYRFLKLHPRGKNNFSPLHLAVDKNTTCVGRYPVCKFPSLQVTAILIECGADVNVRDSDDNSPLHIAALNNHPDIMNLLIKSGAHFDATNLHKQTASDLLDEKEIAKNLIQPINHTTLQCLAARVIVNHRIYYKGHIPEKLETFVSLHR
UniProt Q9NPI8: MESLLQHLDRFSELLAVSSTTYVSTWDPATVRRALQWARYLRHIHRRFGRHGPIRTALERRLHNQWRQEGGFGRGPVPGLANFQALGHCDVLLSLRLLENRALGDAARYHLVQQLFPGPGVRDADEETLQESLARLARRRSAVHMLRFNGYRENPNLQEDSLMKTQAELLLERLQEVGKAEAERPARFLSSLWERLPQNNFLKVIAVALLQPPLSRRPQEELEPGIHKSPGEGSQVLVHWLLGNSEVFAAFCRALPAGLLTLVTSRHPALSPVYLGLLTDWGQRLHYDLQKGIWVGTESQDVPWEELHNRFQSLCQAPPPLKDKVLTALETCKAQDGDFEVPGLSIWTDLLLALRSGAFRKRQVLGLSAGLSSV
UniProt P23142: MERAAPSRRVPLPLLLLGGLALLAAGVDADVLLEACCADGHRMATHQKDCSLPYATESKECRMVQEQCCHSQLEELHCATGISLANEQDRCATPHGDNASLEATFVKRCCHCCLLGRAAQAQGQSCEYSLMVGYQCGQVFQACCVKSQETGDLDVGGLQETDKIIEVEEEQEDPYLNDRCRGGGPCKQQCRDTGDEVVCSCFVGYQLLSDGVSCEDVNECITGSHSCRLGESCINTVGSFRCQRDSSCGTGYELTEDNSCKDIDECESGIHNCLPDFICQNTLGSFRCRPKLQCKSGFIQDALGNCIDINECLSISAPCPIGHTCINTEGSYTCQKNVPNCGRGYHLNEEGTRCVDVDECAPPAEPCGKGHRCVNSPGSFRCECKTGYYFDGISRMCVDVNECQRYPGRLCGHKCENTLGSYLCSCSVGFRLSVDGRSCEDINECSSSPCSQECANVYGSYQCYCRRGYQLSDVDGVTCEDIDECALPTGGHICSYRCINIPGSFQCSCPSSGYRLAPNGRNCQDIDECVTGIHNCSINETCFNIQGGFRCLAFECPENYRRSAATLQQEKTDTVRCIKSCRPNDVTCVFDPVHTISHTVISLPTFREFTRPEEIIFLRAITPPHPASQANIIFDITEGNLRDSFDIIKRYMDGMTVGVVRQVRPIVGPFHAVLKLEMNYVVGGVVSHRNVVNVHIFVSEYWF
UniProt O15287: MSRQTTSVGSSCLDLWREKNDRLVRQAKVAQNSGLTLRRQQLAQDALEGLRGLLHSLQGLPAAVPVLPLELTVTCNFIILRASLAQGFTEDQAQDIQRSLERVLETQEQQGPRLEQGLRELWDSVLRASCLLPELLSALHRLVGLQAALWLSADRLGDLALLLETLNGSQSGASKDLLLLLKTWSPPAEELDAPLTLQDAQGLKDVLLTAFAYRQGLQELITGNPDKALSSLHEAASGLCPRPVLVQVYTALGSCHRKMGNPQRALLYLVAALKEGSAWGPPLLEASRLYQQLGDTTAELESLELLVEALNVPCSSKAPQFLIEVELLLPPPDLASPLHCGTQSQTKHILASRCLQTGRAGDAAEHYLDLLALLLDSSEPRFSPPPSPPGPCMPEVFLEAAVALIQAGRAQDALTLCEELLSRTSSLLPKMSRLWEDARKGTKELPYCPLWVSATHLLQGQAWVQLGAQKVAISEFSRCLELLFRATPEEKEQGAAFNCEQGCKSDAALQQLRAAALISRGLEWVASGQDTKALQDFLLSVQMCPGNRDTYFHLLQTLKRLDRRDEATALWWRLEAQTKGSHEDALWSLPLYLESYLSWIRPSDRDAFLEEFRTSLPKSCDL
UniProt O15360: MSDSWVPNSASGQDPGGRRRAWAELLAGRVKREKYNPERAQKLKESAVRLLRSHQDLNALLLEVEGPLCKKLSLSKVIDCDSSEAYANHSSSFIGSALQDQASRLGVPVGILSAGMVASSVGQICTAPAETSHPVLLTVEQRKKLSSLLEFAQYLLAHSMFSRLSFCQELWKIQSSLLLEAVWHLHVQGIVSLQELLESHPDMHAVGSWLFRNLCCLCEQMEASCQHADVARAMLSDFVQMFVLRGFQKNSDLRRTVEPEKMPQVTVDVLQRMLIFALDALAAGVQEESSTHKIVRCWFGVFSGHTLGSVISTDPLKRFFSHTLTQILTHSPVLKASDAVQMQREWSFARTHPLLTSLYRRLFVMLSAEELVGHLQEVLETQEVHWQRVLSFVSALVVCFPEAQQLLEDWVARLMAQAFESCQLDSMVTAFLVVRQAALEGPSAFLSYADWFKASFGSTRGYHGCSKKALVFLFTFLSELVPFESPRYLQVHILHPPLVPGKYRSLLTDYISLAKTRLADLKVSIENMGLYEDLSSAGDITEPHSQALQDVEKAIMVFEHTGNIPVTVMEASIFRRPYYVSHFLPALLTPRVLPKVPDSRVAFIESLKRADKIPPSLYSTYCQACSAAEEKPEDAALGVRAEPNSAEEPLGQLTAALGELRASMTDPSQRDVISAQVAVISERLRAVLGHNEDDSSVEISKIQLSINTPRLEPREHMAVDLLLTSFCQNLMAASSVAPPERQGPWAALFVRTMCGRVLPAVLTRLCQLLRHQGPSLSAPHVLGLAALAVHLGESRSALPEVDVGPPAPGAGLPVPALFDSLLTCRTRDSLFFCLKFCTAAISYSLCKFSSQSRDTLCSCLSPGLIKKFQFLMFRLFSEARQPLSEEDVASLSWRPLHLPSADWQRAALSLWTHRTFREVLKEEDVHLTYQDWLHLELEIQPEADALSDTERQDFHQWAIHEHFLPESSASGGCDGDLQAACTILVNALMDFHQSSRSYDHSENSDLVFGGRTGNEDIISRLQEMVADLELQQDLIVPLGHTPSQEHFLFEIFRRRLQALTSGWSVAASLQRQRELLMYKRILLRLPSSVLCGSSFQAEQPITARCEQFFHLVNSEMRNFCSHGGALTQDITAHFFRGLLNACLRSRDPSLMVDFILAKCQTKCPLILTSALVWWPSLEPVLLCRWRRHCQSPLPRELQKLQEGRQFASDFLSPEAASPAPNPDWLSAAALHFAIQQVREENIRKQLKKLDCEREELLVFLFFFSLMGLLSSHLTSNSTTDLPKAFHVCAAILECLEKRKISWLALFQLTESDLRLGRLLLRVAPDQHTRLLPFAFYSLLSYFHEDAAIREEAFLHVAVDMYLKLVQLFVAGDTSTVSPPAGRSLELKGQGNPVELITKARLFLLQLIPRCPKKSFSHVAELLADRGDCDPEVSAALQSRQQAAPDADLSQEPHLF
UniProt P31994: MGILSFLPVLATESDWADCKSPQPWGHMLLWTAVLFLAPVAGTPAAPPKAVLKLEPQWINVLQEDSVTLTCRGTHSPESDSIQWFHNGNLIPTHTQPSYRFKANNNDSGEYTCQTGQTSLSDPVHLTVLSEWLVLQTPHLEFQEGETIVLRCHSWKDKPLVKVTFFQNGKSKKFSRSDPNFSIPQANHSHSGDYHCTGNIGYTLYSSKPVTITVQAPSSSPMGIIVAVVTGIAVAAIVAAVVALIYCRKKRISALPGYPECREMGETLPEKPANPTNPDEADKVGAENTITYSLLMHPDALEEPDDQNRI

Experiments:
Assay in all cases: log2 fold change, soluble protein after heating vs DMSO (PISA); higher = thermal stabilisation; K562 lysate, 10 uM; active = over 0.2 and 3.5 SD of the protein, either way, in both replicates (recomputed)
[1] = compound: C1=CC=C(C=C1)C2=NC(=C(N2)C3=CC=NC=C3)C4=CC(=C(C=C4)Cl)O
Outline: (§1)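 Log-two fold change in thermal stability relative to solvent controls is reported from duplicates. For each sample, crude K562 extract from dounce-homogenised pellets in PBS pH 7.4 with 1 mM MgCl2, at 1 mg/mL protein, was treated with 10 μM compound for 30 min. Aliquots heated for 3 min across 48°C-58°C were pooled, brought to 0.5% NP-40 at 4°C and cleared at 21,000xg for 90 min. The supernatant was quantified by TMTpro 16plex LC-MS/MS with channel sums equalised.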

[2] = compound: C1COCCN1CCN2C3=CC=CC=C3N=C2NC(=O)C4=CC(=CC=C4)[N+](=O)[O-] [IRAK-1-4 Inhibitor I]
Outline: as §1

[3] = compound: CC(=O)c1cnc2ccc(-c3cc(Cl)c(O)c(Cl)c3)nc2c1N[C@H]1CC[C@H](CN(C)C)CC1
Outline: as §1

[4] = compound: CC(C)(C)Cn1c(N)nc2ccc(-c3[nH]c(C(C)(C)C)nc3-c3ccc(F)cc3)nc21 [ralimetinib]
Outline: as §1

[5] = compound: CC(C)(O)CC(=O)NCCn1ccc2ncnc(Nc3ccc(Oc4cccc(C(F)(F)F)c4)c(Cl)c3)c21
Outline: as §1

[6] = compound: CC1=C(C(CC(=O)N1)C2=CC=C(C=C2)C(F)(F)F)C(=O)NC3=C(C=C4C(=C3)C=NN4)F
Outline: as §1

[7] = compound: CC1=C(C2=C(C=C1)C(=O)C3=CC=CC=C3N2CCCN)C
Outline: as §1

[8] = compound: CC1=C(C=C(C=C1)NC(=O)C2=CC(=CC=C2)C(C)(C)C#N)NC3=CC4=C(C=C3)N=CN(C4=O)C
Outline: as §1

[9] = compound: CC1=C(C=C(C=C1)NC(=O)C2=CC(=CC=C2)N(C)C)NC(=O)C3=CC=C(C=C3)O
Outline: as §1

[10] = compound: CC1=CC=C(C=C1)SC2=C3C=C(SC3=CN=C2)C(=O)N
Outline: as §1

[11] = compound: C/C(=N\NC(=O)C1=CC(=CC=C1)S(=O)(=O)N2CCOCC2)/C3=C(C=CC(=C3)Cl)O
Outline: as §1

[12] = compound: C1=CC2=C(C=CC(=C2)/C=C\3/C(=O)NC(=NCC4=CC=CS4)S3)N=C1
Outline: as §1

[13] = compound: C1=CC=C2C(=C1)C3=NNC4=CC=CC(=C43)C2=O
Outline: as §1

[14] = compound: C1CCN(C1)C(=O)NC2=CC=CC(=C2)NC3=NC=C(C(=N3)NCCC4=CN=CN4)Br
Outline: as §1

[15] = compound: C1CN(CCC1(CC2=CC=C(C=C2)Cl)N)C3=NC=NC4=C3C=CN4
Outline: as §1

[16] = compound: C1=CC2=NC=CN=C2C=C1/C=C/3\C(=O)NC(=O)S3
Outline: as §1

[17] = compound: C=CC(=O)N1CCC[C@@H](n2nc(-c3ccc(Oc4ccccc4)cc3)c3c(N)ncnc32)C1 [ibrutinib]
Outline: as §1

Measured: log2 fold change

FLYWCH1 isoform 3 (UniProt Q4VC44)
inactive: [1] -0.028 | [2] -0.017 | [3] 0.073 | [4] -0.048 | [5] -0.045 | [6] 0.109 | [7] 0.114 | [8] -0.232 | [9] 0.169 | [10] -0.159

FLII isoform 2 (UniProt Q13045)
inactive: [11] -0.079 | [12] -0.189 | [13] -0.154 | [14] -0.065 | [15] -0.001 | [3] 0.072 | [10] 0.122

FKBP10 (UniProt Q96AY3)
inactive: [1] -0.042 | [14] 0.13 | [15] -0.074 | [2] 0.119 | [4] -0.113 | [5] -0.072 | [6] 0.099 | [7] -0.275 | [9] 0.085

FMNL3 (UniProt Q8IVF7)
inactive: [16] 0.018 | [17] 0.038 | [3] 0.005 | [10] -0.061

FGFR1OP2 isoform 2 (UniProt Q9NVK5)
inactive: [8] -0.004

FBXW2 (UniProt Q9UKT8)
inactive: [11] 0.04 | [12] 0.046 | [16] 0.104 | [1] -0.028 | [13] 0.118 | [2] -0.172 | [17] -0.029 | [4] -0.036 | [5] -0.137 | [7] 0 | [8] -0.07 | [9] 0.103

FEN1 (UniProt I3L3E9)
inactive: [11] 0.015 | [12] -0.061 | [1] 0.03 | [13] 0.009 | [14] 0.014 | [15] -0.07 | [2] 0.036 | [3] -0.053 | [4] 0.161 | [5] 0.016 | [6] -0.059 | [9] 0.069 | [10] 0.108

FMR1NB (UniProt Q8N0W7)
inactive: [8] -0.28

FAM83H (UniProt Q6ZRV2)
inactive: [11] 0.038 | [12] 0.051 | [13] -0.179 | [14] 0.122 | [15] 0.092 | [3] -0.133 | [10] 0.07

FBXO28 (UniProt Q9NVF7)
inactive: [1] -0.194 | [2] -0.019 | [3] -0.006 | [4] 0.073 | [5] 0.316 | [9] -0.007 | [10] 0.026

FASN, A0A0U1RRG3
inactive: [3] 0.555 | [10] 0.206

FCHSD2 (UniProt O94868)
inactive: [3] -0.027 | [6] -0.175 | [7] 0.08 | [10] -0.04

FER isoform 3 (UniProt P16591)
inactive: [3] -0.061 | [8] -0.207 | [10] 0.184

FOSL1 (UniProt P15407)
inactive: [3] 0.074 | [6] 0.155 | [7] 0.034 | [8] 0.021 | [10] -0.081

FILIP1L (UniProt Q4L180)
inactive: [1] 0.151 | [14] -0.154 | [15] -0.094 | [2] 0.001 | [3] 0.123 | [4] 0.162 | [5] 0.062 | [7] -0.061 | [9] -0.268 | [10] -0.186

FANCE (UniProt Q9HB96)
inactive: [3] 0.153 | [6] -0.045 | [7] -0.115 | [8] -0.013 | [10] 0.045

FEM1C (UniProt Q96JP0)
inactive: [7] -0.001

FNTA (UniProt H0YCW1)
inactive: [1] 0.052 | [2] 0.01 | [4] -0.021 | [5] -0.015 | [9] -0.033

FANCF (UniProt Q9NPI8)
inactive: [8] -0.1

FBXO33 (UniProt Q7Z6M2)
inactive: [1] -0.009 | [2] -0.005 | [4] 0.055 | [5] -0.169 | [9] 0.112

FIZ1 (UniProt Q96SL8)
inactive: [16] -0.061 | [1] -0.043 | [2] -0.062 | [17] 0.07 | [3] 0.187 | [4] -0.093 | [5] -0.056 | [6] 0.012 | [9] -0.06 | [10] -0.028

FBLN1 (UniProt P23142)
inactive: [11] 0.085 | [12] -0.222 | [16] 0.033 | [1] -0.071 | [13] 0.142 | [2] 0.005 | [17] -0.065 | [4] -0.032 | [5] 0.057 | [6] 0.089 | [8] 0.147 | [9] -0.014

FDPS, A0A087WVN4
inactive: [3] 0.011 | [10] 0.144

FOS (UniProt P01100)
inactive: [14] -0.001 | [15] -0.188

FANCG (UniProt O15287)
inactive: [11] 0.053 | [12] -0.444 | [1] -0.038 | [13] -0.195 | [14] -0.095 | [15] -0.028 | [2] -0.151 | [4] -0.116 | [5] -0.046 | [6] -0.09 | [8] 0.059 | [9] 0.138

FANCA (UniProt O15360)
inactive: [11] -0.201 | [12] -0.03 | [13] -0.066 | [14] -0.054 | [15] 0.065 | [7] -0.127 | [8] 0.036

FBH1 isoform 2 (UniProt Q8NFZ0)
inactive: [16] 0.04 | [17] -0.037 | [6] -0.039 | [8] -0.032

FBXL15 (UniProt Q9H469)
inactive: [11] 0.037 | [12] 0.125 | [1] 0.163 | [13] -0.03 | [14] -0.017 | [15] -0.016 | [2] 0.04 | [4] 0.069 | [5] -0.222 | [6] 0.029 | [7] -0.015 | [8] 0.139 | [9] -0.142

FCF1 (UniProt Q9Y324)
inactive: [6] 0.041 | [7] -0.005 | [8] -0.034

FITM2 (UniProt Q8N6M3)
inactive: [16] 0.01 | [17] -0.059 | [3] 0.012 | [6] -0.204 | [10] -0.071

FGFR1OP isoform 3 (UniProt O95684)
inactive: [11] 0.057 | [12] 0.226 | [13] 0.169

FCGR2B (UniProt P31994)
inactive: [1] 0.001 | [14] 0.143 | [15] -0.113 | [2] -0.034 | [4] 0 | [5] 0.096 | [8] -0.085 | [9] 0.014
